Publication PMC10484675

The chains behind the UniProt entries cited, without tags or fusion partners. Where a name states a change or a piece, a line headed by the entry shows the natural chain unless it says otherwise.
UniProt Q3TQQ9: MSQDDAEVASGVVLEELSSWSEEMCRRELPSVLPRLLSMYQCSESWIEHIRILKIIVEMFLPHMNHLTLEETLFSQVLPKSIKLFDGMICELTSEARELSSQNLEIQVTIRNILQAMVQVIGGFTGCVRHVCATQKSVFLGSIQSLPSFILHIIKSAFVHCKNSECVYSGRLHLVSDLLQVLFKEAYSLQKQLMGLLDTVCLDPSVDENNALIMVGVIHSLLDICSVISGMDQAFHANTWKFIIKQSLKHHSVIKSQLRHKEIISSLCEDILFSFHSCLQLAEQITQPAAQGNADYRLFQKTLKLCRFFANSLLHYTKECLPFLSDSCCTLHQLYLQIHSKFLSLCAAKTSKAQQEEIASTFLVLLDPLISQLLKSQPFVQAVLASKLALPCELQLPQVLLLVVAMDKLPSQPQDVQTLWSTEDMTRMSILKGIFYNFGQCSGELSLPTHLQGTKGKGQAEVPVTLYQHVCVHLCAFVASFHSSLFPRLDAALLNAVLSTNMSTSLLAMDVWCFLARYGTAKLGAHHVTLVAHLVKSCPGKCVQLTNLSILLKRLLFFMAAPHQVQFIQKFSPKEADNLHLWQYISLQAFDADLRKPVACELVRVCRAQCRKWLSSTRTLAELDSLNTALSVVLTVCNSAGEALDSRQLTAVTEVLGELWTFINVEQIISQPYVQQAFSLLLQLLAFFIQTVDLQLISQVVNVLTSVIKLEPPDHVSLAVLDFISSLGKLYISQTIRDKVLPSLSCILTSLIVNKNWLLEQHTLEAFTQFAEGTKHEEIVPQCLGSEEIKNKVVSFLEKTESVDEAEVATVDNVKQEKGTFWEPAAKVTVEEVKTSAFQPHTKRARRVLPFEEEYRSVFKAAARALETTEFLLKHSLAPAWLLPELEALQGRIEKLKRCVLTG

Tests used:
[1] = molecular target: T1, DMC1 (mouse), N-terminally tagged (mouse) (UniProt Q61880); assay: co-IP; 293T cells transiently transfected with N-terminally FLAG-, HA- or GFP-tagged mouse proteins, harvested after 24 h; lysis in 25 mM Tris-HCl pH 7.5, 300 mM NaCl, 1% Triton X-100, 1 mM DTT, 1 mM EDTA with sonication; antibody-conjugated agarose beads, 4°C, 4 h; Western blot. RAD51-FLIP co-precipitate strong with overexpressed FIGNL1, basal without exogenous FIGNL1
T1 sequence: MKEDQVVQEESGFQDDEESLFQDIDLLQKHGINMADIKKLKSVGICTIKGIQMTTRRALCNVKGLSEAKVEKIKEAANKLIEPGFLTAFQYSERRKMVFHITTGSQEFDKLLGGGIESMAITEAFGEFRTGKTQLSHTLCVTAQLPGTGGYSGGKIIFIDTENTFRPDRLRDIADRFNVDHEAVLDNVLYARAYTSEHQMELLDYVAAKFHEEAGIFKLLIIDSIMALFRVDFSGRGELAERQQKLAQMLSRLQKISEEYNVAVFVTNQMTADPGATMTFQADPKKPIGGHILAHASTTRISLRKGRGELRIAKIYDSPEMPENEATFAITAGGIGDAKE

[2] = molecular target: T2, SWSAP1 (mouse), N-terminally tagged (mouse) (UniProt Q8VCI7); assay: as above
T2 sequence: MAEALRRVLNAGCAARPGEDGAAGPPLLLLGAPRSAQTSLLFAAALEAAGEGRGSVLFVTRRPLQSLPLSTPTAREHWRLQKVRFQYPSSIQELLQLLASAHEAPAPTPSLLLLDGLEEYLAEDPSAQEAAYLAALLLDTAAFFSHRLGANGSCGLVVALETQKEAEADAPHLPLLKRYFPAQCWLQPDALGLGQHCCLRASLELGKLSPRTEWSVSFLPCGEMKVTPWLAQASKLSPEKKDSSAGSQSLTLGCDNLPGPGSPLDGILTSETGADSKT

[3] = molecular target: FLAG-tagged wild-type FLIP (mouse) (mouse) (UniProt Q3TQQ9); assay: as above
[4] = molecular target: GST-FLIP (not stated (human or mouse cDNA cloned)) (UniProt Q3TQQ9); assay: pull-down; in vitro GST pull-down: 0.05 μg GST or GST-FLIP on glutathione agarose beads with 0.1 μg MBP, MBP-FIGNL1 or MBP-RAD51 in 800 μl NETN buffer (20 mM Tris HCl pH 8.0, 100 mM NaCl, 1 mM EDTA, 0.5% Nonidet P-40), 4°C, 30 min; immunoblot; both purified

B1: FIGNL1-ΔN300 (mouse) (domain or fragment, UniProt Q8BPY9 301-683)
chain: LPTFKTAKEQLWVDQKKKGHQSQHTSKSSNGVMKKSLGAGRSRGIFGKFVPPVSNKQDGSEQHAKKHKSSRAGSAEPAHLTDDCLKNVEPRMVELIMNEIMDHGPPVHWDDIAGVEFAKATIKEIVVWPMMRPDIFTGLRGPPKGILLFGPPGTGKTLIGKCIASQSGATFFSISASSLTSKWVGEGEKMVRALFAVARCQQPAVIFIDEIDSLLSQRGDGEHESSRRIKTEFLVQLDGATTSSEDRILVVGATNRPQEIDEAARRRLVKRLYIPLPEASARKQIVGNLMSKEQCCLSDEETDLVVQQSDGFSGADMTQLCREASLGPIRSLHAADIATISPDQVRPIAYIDFENAFKTVRPTVSPKDLELYENWNETFGCGK
- binding [3]: no binding

B2: FIGNL1-ΔN150 (mouse) (domain or fragment, UniProt Q8BPY9 151-683)
chain: TAFEVPQLSVCGGSEDADILSSSGHDTDKTQAIPGSSLRCSPFQSARLPKETNTTKTCLTSSTSLGESATAAFHMTPLFGNTEKDTQSFPKTSTGLNMFLSNLSCVPSGCENPQERKAFNDSDIIDILSNPTLNKAPSKTEDRGRREDNSLPTFKTAKEQLWVDQKKKGHQSQHTSKSSNGVMKKSLGAGRSRGIFGKFVPPVSNKQDGSEQHAKKHKSSRAGSAEPAHLTDDCLKNVEPRMVELIMNEIMDHGPPVHWDDIAGVEFAKATIKEIVVWPMMRPDIFTGLRGPPKGILLFGPPGTGKTLIGKCIASQSGATFFSISASSLTSKWVGEGEKMVRALFAVARCQQPAVIFIDEIDSLLSQRGDGEHESSRRIKTEFLVQLDGATTSSEDRILVVGATNRPQEIDEAARRRLVKRLYIPLPEASARKQIVGNLMSKEQCCLSDEETDLVVQQSDGFSGADMTQLCREASLGPIRSLHAADIATISPDQVRPIAYIDFENAFKTVRPTVSPKDLELYENWNETFGCGK
- binding [3]: no binding

B3: MBP-FIGNL1 (protein, UniProt Q8BPY9 1-683)
chain: METSSSMSVETTRSVQVDEWQKNYCVVTSSICTPKQKADAYRALLLHIQYAYANSEISQVFATNLFKRYTEKYSAIIDSDNVVTGLNNYAESIFALAGSRQADSNKWQSGLSIDNVFKMSCVQEMMQAGKKFEESLLEPADASVVLCKEPTAFEVPQLSVCGGSEDADILSSSGHDTDKTQAIPGSSLRCSPFQSARLPKETNTTKTCLTSSTSLGESATAAFHMTPLFGNTEKDTQSFPKTSTGLNMFLSNLSCVPSGCENPQERKAFNDSDIIDILSNPTLNKAPSKTEDRGRREDNSLPTFKTAKEQLWVDQKKKGHQSQHTSKSSNGVMKKSLGAGRSRGIFGKFVPPVSNKQDGSEQHAKKHKSSRAGSAEPAHLTDDCLKNVEPRMVELIMNEIMDHGPPVHWDDIAGVEFAKATIKEIVVWPMMRPDIFTGLRGPPKGILLFGPPGTGKTLIGKCIASQSGATFFSISASSLTSKWVGEGEKMVRALFAVARCQQPAVIFIDEIDSLLSQRGDGEHESSRRIKTEFLVQLDGATTSSEDRILVVGATNRPQEIDEAARRRLVKRLYIPLPEASARKQIVGNLMSKEQCCLSDEETDLVVQQSDGFSGADMTQLCREASLGPIRSLHAADIATISPDQVRPIAYIDFENAFKTVRPTVSPKDLELYENWNETFGCGK
- binding [4]: binds

Continued, values first:

- binding [1]: binds
- binding [2]: binds
Molecule: FLAG-tagged wild-type FLIP (mouse) (from UniProt Q3TQQ9)

- binding [3]: binds
B4: FIGNL1 (mouse), N-terminally tagged (protein, UniProt Q8BPY9 1-683)
chain: B3 chain

No constants are given. Whether binding was seen depends on the method and setting. Binding calls can cover weak binding; strength is not graded here. Tags and fused reporters may be left off the sequences shown. For part of these data: Binding seen in cells or lysates may run through a third protein. One block for each molecule: values may come before it.
